This is an account of results in PubChem BioAssay AID248 (DTP/NCI, 2004).

The list does not hold the whole screen: it is rich in T/C values a quarter to a half above the control, in often repeated tests (any T/C) and in doses without a T/C. Other doses and runs of a compound stand elsewhere. T/C: endpoint of the treated group in % of that of the vehicle group. Some entries give survivors of the animals treated and no T/C: the source files T/C as zero there, which appears to mark a toxic dose or a test without result, not a measured value. Some doses without a T/C left all or most animals alive at the check, yet need not have been tolerated: the source hardly ever lists a survival T/C far under the control, and the zero likely stands for such cases as well. Survivors were counted at the toxicity check, usually on the fifth day, unless a day is given; later deaths do not show. Schedule codes are those of the source, read here as Q, the interval in days (D) or hours (H), X, the number of doses. Some doses were run more than once; the results are listed from low to high. Some schedules carry Z or #; the key to these is not given. Where survival is the endpoint, this PubChem deposit counts one and a half times the control or more as active, and values a quarter to a half above the control carry no call in these data; other NCI protocols may use other cut-offs. Some T/C values are followed by the survivors on the day toxicity was checked, most often the fifth; without a count, all were alive then.

This assay has as its system L1210 leukemia ip in BDF1 mice, survival T/C. As to the kind of experiment: NCI In Vivo Anticancer Drug Screen. Data for tumor model L1210 Leukemia (intraperitoneal) in B6D2F1 (BDF1) mice. The settings on record: T/C endpoint: mean survival time, higher T/C = longer survival.
[1] abbreviates: dose: 400.0 mg/kg/injection, schedule: Q04DX003 (ip), vehicle: saline.
[2] abbreviates: dose: 40.0 mg/kg/injection, schedule: Q01DX001 (ip), vehicle: saline.
The mark [3] stands for this setting: dose: 80.0 mg/kg/injection, schedule: Q01DX001 (ip), vehicle: saline.
The mark [4] stands for this setting: dose: 400.0 mg/kg/injection, schedule: Q01DX001 (ip), vehicle: carboxymethylcellulose (CMC).
[5] abbreviates: dose: 150.0 mg/kg/injection, schedule: Q01DX001 (ip), vehicle: saline.
The mark [6] stands for this setting: dose: 300.0 mg/kg/injection, schedule: Q01DX001 (ip), vehicle: saline.
[7] abbreviates: dose: 400.0 mg/kg/injection, schedule: Q04DX003 (ip), vehicle: Klucel (hydroxypropylcellulose) (HPC).
The mark [8] stands for this setting: dose: 50.0 mg/kg/injection, schedule: Q01DX009 (ip), vehicle: saline with Tween-80.
[9] abbreviates: dose: 300.0 mg/kg/injection, schedule: Q01DX001 (ip), vehicle: other.
The mark [10] stands for this setting: dose: 400.0 mg/kg/injection, schedule: Q04DX002 (ip), vehicle: saline with Tween-80.

Take `CS(=O)(=O)OCCN1CCC2(CC1)SSC1(CCN(CCOS(C)(=O)=O)CC1)S2`: the survivor count (dose: 25.0 mg/kg/injection, schedule: Q01DX009 (ip), vehicle: saline) was 0 of 6; the survivor count (dose: 50.0 mg/kg/injection, schedule: Q04DX003 (ip), vehicle: saline) is reported as 0 of 6; the survivor count (dose: 100.0 mg/kg/injection, schedule: Q04DX003 (ip), vehicle: saline) is 0 of 6; the survivor count (dose: 200.0 mg/kg/injection, schedule: Q04DX003 (ip), vehicle: saline) is 0 of 6 and 1 of 6; the survivor count under setting [1] is listed as 0 of 6.
Take `O=S(=O)(O)SCNCNCCSCc1ccccc1`: the survivor count by setting is: (dose: 100.0 mg/kg/injection, schedule: Q04DX002 (ip), vehicle: Klucel (hydroxypropylcellulose) (HPC)) 0 of 3; (dose: 200.0 mg/kg/injection, schedule: Q04DX002 (ip), vehicle: Klucel (hydroxypropylcellulose) (HPC)) 0 of 3; (dose: 400.0 mg/kg/injection, schedule: Q04DX002 (ip), vehicle: Klucel (hydroxypropylcellulose) (HPC)) 0 of 3.
In the case of `CCCCCCOc1ccc(C(=N)N(CCCC)CCCC)c2ccccc12`, the survivor count is 2 of 4 under setting [2]; 1 of 5 (dose: 50.0 mg/kg/injection, schedule: Q01DX001 (ip), vehicle: saline); 0 of 4 under setting [3]; 1 of 4 (dose: 100.0 mg/kg/injection, schedule: Q01DX001 (ip), vehicle: saline); 0 of 4 (dose: 200.0 mg/kg/injection, schedule: Q01DX001 (ip), vehicle: saline); 0 of 4 (dose: 400.0 mg/kg/injection, schedule: Q01DX001 (ip), vehicle: saline).
Regarding `C/C=C1/C[C@@H](C)[C@@](C)(O)C(=O)OCC2=CCN3CC[C@@H](OC1=O)[C@@H]23`, the survivor count runs as follows: (dose: 200.0 mg/kg/injection, schedule: Q01DX001 (ip), vehicle: carboxymethylcellulose (CMC)) 1 of 6; under setting [4], 0 of 6.
On to `CC(=O)N(C)C`, for which the T/C is 139 % of control (dose: 1500.0 mg/kg/injection, schedule: Q01DX Z (ip), vehicle: other); 131 % of control (dose: 2000.0 mg/kg/injection, schedule: Q01DX Z (ip), vehicle: other); 144 % of control [4 of 6 alive] (dose: 2500.0 mg/kg/injection, schedule: Q01DX Z (ip), vehicle: other).
For the compound `CS(=O)(=O)c1cc(N2CC2)ncn1`, the survivor count (dose: 128.0 mg/kg/injection, schedule: Q01DX015 (ip), vehicle: carboxymethylcellulose (CMC)) is 2 of 6.
Turning to `C[N+](C)(CCC#N)Cc1ccc(C[N+](C)(C)CCC#N)cc1`, the survivor count is, setting by setting: under setting [2], 1 of 6; (dose: 75.0 mg/kg/injection, schedule: Q01DX001 (ip), vehicle: saline) 0 of 6; under setting [3], 0 of 6; under setting [5], 0 of 6; under setting [6], 0 of 6.
In the case of `O=Nc1ccc(-[n+]2ccccc2)c([N+](=O)[O-])c1`, the survivor count is given as 3 of 6 under setting [5] and 0 of 6 under setting [6].
As to `O=C(NCCCl)NN1CCCCC1`, under setting [7], the survivor count was 3 of 6.
Consider `N/C(=N/N=C/c1ccccn1)N[N+](=O)[O-]`, for which the survivor count under setting [8] is reported as 3 of 6.
Consider `CN=C(NC)c1ccc(NC(=O)c2cc(Cl)cc(C(=O)Nc3ccc(C(=NC)NC)cc3)c2)cc1`, for which the survivor count by setting is: (dose: 30.0 mg/kg/injection, schedule: Q01DX Z (ip), vehicle: saline) 1 of 6; (dose: 60.0 mg/kg/injection, schedule: Q01DX Z (ip), vehicle: saline) 0 of 6; (dose: 120.0 mg/kg/injection, schedule: Q01DX Z (ip), vehicle: saline) 0 of 6.
In the case of `C[N+](C)(C)CCCC[N+](C)(C)C`, the survivor count is, setting by setting: (dose: 400.0 mg/kg/injection, schedule: Q01DX009 (ip), vehicle: saline) 1 of 6; under setting [1], 4 of 6.
`CC(=O)n1c(O)c(N=NC(=N)N[N+](=O)[O-])c2ccccc21`: the survivor count was 5 of 6 (dose: 100.0 mg/kg/injection, schedule: Q01DX009 (ip), vehicle: saline with Tween-80) and 2 of 6 (dose: 400.0 mg/kg/injection, schedule: Q01DX009 (ip), vehicle: saline with Tween-80). For the same compound, the T/C (dose: 200.0 mg/kg/injection, schedule: Q01DX001 (ip), vehicle: saline with Tween-80) was 140 % of control [5 of 6 alive] and the T/C (dose: 200.0 mg/kg/injection, schedule: Q01DX009 (ip), vehicle: saline with Tween-80) was 126 % of control [5 of 6 alive].
In the case of `COc1cc(C(=O)O)c(C(=O)O)cc1OC`, the survivor count (dose: 100.0 mg/kg/injection, schedule: Q01DX001 (ip), vehicle: Klucel (hydroxypropylcellulose) (HPC)) is listed as 6 of 6 and the survivor count (dose: 200.0 mg/kg/injection, schedule: Q01DX001 (ip), vehicle: Klucel (hydroxypropylcellulose) (HPC)) was 6 of 6.
In the case of `COc1ccc(N(C=O)N=O)cc1`, the survivor count under setting [9] was 0 of 6.
As for `CCCCN=C=S`, under setting [10], the survivor count is listed as 1 of 3.
In the case of `CC(=O)Oc1ccc(N(CCO)CCO)cc1OC(C)=O`, the survivor count (dose: 9.38 mg/kg/injection, schedule: Q01DX001 (ip), vehicle: water) is recorded as 0 of 6; the survivor count (dose: 18.75 mg/kg/injection, schedule: Q01DX001 (ip), vehicle: water) was 0 of 6; the survivor count (dose: 37.5 mg/kg/injection, schedule: Q01DX001 (ip), vehicle: water) is 0 of 6; the survivor count (dose: 75.0 mg/kg/injection, schedule: Q01DX001 (ip), vehicle: water) was 0 of 6; the survivor count (dose: 150.0 mg/kg/injection, schedule: Q01DX001 (ip), vehicle: water) is 0 of 6; the survivor count (dose: 300.0 mg/kg/injection, schedule: Q01DX001 (ip), vehicle: water) is on record as 0 of 6.
Consider `CC1=CP(=O)(Oc2ccc([N+](=O)[O-])cc2)CC1` (centres undefined), for which the survivor count is listed as 0 of 6 under setting [5] and 0 of 6 under setting [6].
Consider `C[P+](c1ccccc1)(c1ccc(Cl)cc1)c1ccc(Cl)cc1`, for which the survivor count (dose: 100.0 mg/kg/injection, schedule: Q04DX002 (ip), vehicle: saline) is 1 of 3; the survivor count (dose: 200.0 mg/kg/injection, schedule: Q04DX002 (ip), vehicle: saline with Tween-80) is 0 of 3; the survivor count under setting [10] is on record as 0 of 3.
In the case of `S=C(NP(=S)(NC(=S)OCCN1CC1)NC(=S)OCCN1CC1)OCCN1CC1`, the survivor count under setting [4] was 0 of 6.
With `CC1=NCCCN=C(C)C(C)=NCCCN=C1C.[Br][Co][Br]`, under setting [7], the survivor count is reported as 0 of 6.
As for `O=C1CC(c2ccc(Br)cc2)N(c2ccc([As](=O)(O)O)cc2)C1=O` (centres undefined), the survivor count runs as follows: (dose: 100.0 mg/kg/injection, schedule: Q04DX003 (ip), vehicle: saline with Tween-80) 0 of 6; (dose: 200.0 mg/kg/injection, schedule: Q04DX003 (ip), vehicle: saline with Tween-80) 0 of 6; (dose: 400.0 mg/kg/injection, schedule: Q04DX003 (ip), vehicle: saline with Tween-80) 0 of 6.
Consider `OC(CI)C(O)CI` (centres undefined), for which the survivor count by setting is: (dose: 75.0 mg/kg/injection, schedule: Q01DX001 (ip), vehicle: other) 6 of 6; under setting [9], 0 of 6.
For the compound `CC(=O)Nc1cc(Cl)cc2c1-c1c(Cl)cc(Cl)cc1C2`, the survivor count (dose: 200.0 mg/kg/injection, schedule: Q01DX009 (ip), vehicle: Klucel (hydroxypropylcellulose) (HPC)) was 3 of 6 and the survivor count (dose: 400.0 mg/kg/injection, schedule: Q01DX009 (ip), vehicle: Klucel (hydroxypropylcellulose) (HPC)) is on record as 0 of 6.
Take `O=C1C(=O)c2ccccc2C(O)=C1CCCc1ccc(OCc2ccccc2)cc1`: the survivor count is on record as 6 of 6 (dose: 25.0 mg/kg/injection, schedule: Q01DX009 (ip), vehicle: saline with Tween-80) and 5 of 6 under setting [8].
